Laboratory results from patent publication US12377164B2 (ASTRAZENECA AB, priority 2018, dated 2025).

What was measured:
[1] = Competition experiment: reaction with Boc-Cys-OMe and Boc-Lys-OMe at alkaline pH; settings: pH 8, 37° C., 2 h
[2] = general procedure: solution-phase peptide synthesis; HBTU/DIPEA, HBTU/HOBt/DIPEA; HOBt/pyridine for PNP carbonates; settings: conjugation step

C=Cc1ccnc(N)n1 [compound 1, 2-amino-4-vinyl-pyrimidine]
formation of the lysine conjugate ([1]; competition with cysteine): No evidence of the lysine conjugate 5 was observed | conversion to the cysteine conjugate ([1]; competition with lysine): full conversion to the cysteine conjugate 3

Alloc-Val-Ala-PABC-MMAE
conjugation yield [2]: 88%
